# Assay results as given in PubChem BioAssay.
# This is one part of the list. The main result of the screen is listed elsewhere. These columns were measured beside it and carry no call. Compounds called inactive in the main read-out are mostly missing here.
# Experiment: enhancers of SMN2 over SMN1 splicing, cell-based, SMN2/SMN1 luciferase reporters (AID 1598)
# Settings: SMN2 vs SMN1 luciferase splicing reporter cells, at 10 µM; SMN1 luciferase ratio: measured here: SMN1 luciferase reporter average; SMN2 luciferase ratio: measured here: SMN2 luciferase reporter average, stronger effect = higher value
SMILES,SMN1 luciferase ratio,SMN2 luciferase ratio
CCN1CCCC(OC(=O)C(c2ccccc2)c2ccccc2)C1 (stereo not drawn),0.81,0.88
CC(=O)Oc1ccccc1C(=O)O,0.87,0.89
CC(=O)OCC(=O)[C@H]1CCC2C3CCC4=CC(=O)CC[C@]4(C)C3CC[C@@]21C (stereo partly drawn),0.98,0.81
C#C[C@]1(O)CCC2C3CCc4cc(O)ccc4C3CC[C@@]21C (stereo partly drawn),0.97,0.87
NC(Cc1cc(I)c(Oc2ccc(O)c(I)c2)c(I)c1)C(=O)O (stereo not drawn),0.81,0.85
CCN(CC)CCNC(=O)c1cc(S(C)(=O)=O)ccc1OC,0.91,1.01
C[C@@H]1CC2C3C[C@H](F)C4=CC(=O)C=CC4(C)C3(F)[C@@H](O)CC2(C)C1C(=O)COC(=O)C(C)(C)C (stereo partly drawn),0.94,1.01
CC1(C)S[C@@H]2[C@H](NC(=O)[C@H](NC(=O)N3CCNC3=O)c3ccccc3)C(=O)N2C1C(=O)O (stereo partly drawn),0.9,0.97
O=C(O)P(=O)(O)O,0.97,0.91
C#C[C@]1(O)CCC2C3CCC4=C(CCC(=O)C4)C3CC[C@@]21C (stereo partly drawn),0.9,0.89
CCC(Cc1c(I)cc(I)c(N)c1I)C(=O)O (stereo not drawn),0.96,0.88
C1CCN2C[C@H]3C[C@H](CN4CCCC[C@@H]34)[C@H]2C1,0.93,0.84
COC1=CC(C)[C@@H]2C[C@H]3OC(=O)C[C@H]4C(C)=C(OC)C(=O)C([C@@]34C)[C@@]2(C)C1=O (stereo partly drawn),0.84,0.96
Nc1nc(N)c2nc(-c3ccccc3)c(N)nc2n1,0.83,0.79
O=c1cc[nH]c(=S)[nH]1,0.86,0.97
CN1C(=O)CC[C@H]1c1cccnc1,0.95,1.05
Nc1ccc(C(=O)NCC(=O)O)cc1,0.92,0.99
CC(=O)[C@@]1(O)CCC2C3C[C@H](C)C4=CC(=O)C=CC4(C)[C@@]3(F)[C@@H](O)C[C@@]21C (stereo partly drawn),0.88,0.92
c1ccc(CC2=NCCN2)cc1,0.86,0.74
Nc1ccc(C(=O)O)cc1,0.95,1.01
C#C[C@]1(O)CCC2C3CCC4=CC(=O)CC[C@@H]4C3CC[C@@]21C (stereo partly drawn),0.9,0.86
CN[C@H](CC(=O)O)C(=O)O,0.88,0.82
Clc1ccc2c(c1)C(N1CCNCC1)=Nc1ccccc1O2,0.75,0.68
C=C[C@@]1(C)CC(=O)[C@@]2(O)[C@](C)(O1)[C@@H](OC(C)=O)[C@@H](O)C1C(C)(C)CC[C@H](O)[C@@]12C (stereo partly drawn),1.56,1.56
CN(C)CCOC(=O)C(c1ccccc1)C1(O)CCCC1 (stereo not drawn),0.86,0.93
CN(C)C(=O)C(CCN1CCC(O)(c2ccc(Cl)cc2)CC1)(c1ccccc1)c1ccccc1,0.83,0.79
CCOc1ccc(NC(C)=O)cc1,0.98,1.02
CCCNC(C)C(=O)Nc1ccccc1C (stereo not drawn),0.96,0.91
C[C@@H]1CC2C3CCC4=CC(=O)C=C[C@]4(C)[C@@]3(F)[C@@H](O)C[C@]2(C)[C@@]1(O)C(=O)CO (stereo partly drawn),0.89,0.98

# Arranged by formula weight (falling): part of the list above.
SMILES,SMN1 luciferase ratio,SMN2 luciferase ratio
C#C[C@]1(O)CCC2C3CCC4=CC(=O)CC[C@@H]4C3CC[C@@]21C (stereo partly drawn),0.9,0.86
C1CCN2C[C@H]3C[C@H](CN4CCCC[C@@H]34)[C@H]2C1,0.93,0.84
CCCNC(C)C(=O)Nc1ccccc1C (stereo not drawn),0.96,0.91
CN[C@H](CC(=O)O)C(=O)O,0.88,0.82
Nc1ccc(C(=O)O)cc1,0.95,1.01
